Data as given in PMC7409020, “Tumor-Targeting Peptides: The Functional Screen of Glioblastoma Homing Peptides to the Target Protein FABP3 (MDGI)” (Cancers, 2020).
No constants are given. Whether binding was seen depends on the method and setting. Some entries that bind do so weakly or less than the wild type.

Amino acid sequences for entries named in this document (tags omitted).
UniProt P05413: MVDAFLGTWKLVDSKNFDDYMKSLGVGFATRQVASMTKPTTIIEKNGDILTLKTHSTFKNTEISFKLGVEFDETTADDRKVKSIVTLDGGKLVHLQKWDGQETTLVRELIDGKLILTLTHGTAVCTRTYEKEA

Biological target: FABP3/MDGI-GFP fusion protein in U87MG glioblastoma cells (UniProt P05413)
Experiment: fluorescence microscopy of labelled peptide on cells; TAMRA-labelled peptides at 1 µg/mL in serum-free medium for 60 min on U87MG cells expressing FABP3-GFP or GFP, washed, fixed with PFA, imaged; binding and internalisation; only the binder purified

Row | Binder | binding
1 | ACGLSGLGVAK (5(6)-carboxytetramethylrhodamine (TAMRA) on the N-terminus; C-terminal amide) [TAMRA-A-CooP-K] | binds
2 | ACGLSGLGVA (5(6)-carboxytetramethylrhodamine (TAMRA) on the N-terminus; C-terminal amide) [TAMRA-A-CooP] | binds
3 | ACGLSALGVA (5(6)-carboxytetramethylrhodamine (TAMRA) on the N-terminus; C-terminal amide) [TAMRA- A-[Ala^5]CooP] | no binding (tested: 1 µg/mL)
4 | CVAALNADG (TAMRA on the N-terminus) [TAMRA-Negative control] | no binding (tested: 1 µg/mL)
